# Publication PMC5996148
# Chains of the proteins cited; added tags and fusions are not shown. Lines headed by an entry give the natural chain unless they say otherwise; changes in a name come on top.
# UniProt P06748, whole entry: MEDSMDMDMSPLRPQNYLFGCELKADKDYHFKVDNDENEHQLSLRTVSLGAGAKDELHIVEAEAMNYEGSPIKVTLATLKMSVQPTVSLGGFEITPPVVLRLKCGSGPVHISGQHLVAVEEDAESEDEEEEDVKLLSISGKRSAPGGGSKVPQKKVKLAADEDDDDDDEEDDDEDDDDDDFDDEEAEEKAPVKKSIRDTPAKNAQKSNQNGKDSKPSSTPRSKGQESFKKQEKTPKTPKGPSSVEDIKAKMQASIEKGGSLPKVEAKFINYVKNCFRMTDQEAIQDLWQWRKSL
# UniProt Q9BRJ7: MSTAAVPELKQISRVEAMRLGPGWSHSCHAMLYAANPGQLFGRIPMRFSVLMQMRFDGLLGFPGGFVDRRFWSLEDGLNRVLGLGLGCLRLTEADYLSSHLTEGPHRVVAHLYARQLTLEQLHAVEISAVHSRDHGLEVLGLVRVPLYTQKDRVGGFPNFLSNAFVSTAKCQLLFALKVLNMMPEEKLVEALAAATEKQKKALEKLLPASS
# This is one part of the list. For some assays here: The exact form of the protein is not confirmed.
# How the values were obtained:
# Assay in all cases: protein microarray (ProtoArray v5.0), streptavidin-Alexa Fluor 647
# Conditions in all cases: 3'-biotin; 20 mM Tris (pH 7.5), 5 mM MgCl2, 100 mM KCl, 0.1% Tween-20, A/T-rich and random oligonucleotide blockers; temperature not stated; high values mean tight binding
# NMNAT2 (human) = tested on: NMNAT2 (human)
# NMT2 = molecular target: T1, NMT2 (UniProt O60551)
# T1 sequence: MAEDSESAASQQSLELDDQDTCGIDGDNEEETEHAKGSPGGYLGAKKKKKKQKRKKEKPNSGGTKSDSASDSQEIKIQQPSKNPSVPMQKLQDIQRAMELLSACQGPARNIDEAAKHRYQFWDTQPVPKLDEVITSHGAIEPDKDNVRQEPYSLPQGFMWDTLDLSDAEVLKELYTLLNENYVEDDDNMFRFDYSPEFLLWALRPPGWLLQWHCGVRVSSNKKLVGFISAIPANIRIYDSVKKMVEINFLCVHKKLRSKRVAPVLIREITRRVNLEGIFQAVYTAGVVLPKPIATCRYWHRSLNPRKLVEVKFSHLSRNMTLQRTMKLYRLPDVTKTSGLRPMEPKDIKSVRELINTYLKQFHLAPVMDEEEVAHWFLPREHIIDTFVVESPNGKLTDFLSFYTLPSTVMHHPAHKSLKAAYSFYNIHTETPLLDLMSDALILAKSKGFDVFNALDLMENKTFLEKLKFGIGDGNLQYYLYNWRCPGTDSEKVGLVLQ
# NOLC1 = molecular target: T2, NOLC1 (UniProt Q14978)
# T2 sequence: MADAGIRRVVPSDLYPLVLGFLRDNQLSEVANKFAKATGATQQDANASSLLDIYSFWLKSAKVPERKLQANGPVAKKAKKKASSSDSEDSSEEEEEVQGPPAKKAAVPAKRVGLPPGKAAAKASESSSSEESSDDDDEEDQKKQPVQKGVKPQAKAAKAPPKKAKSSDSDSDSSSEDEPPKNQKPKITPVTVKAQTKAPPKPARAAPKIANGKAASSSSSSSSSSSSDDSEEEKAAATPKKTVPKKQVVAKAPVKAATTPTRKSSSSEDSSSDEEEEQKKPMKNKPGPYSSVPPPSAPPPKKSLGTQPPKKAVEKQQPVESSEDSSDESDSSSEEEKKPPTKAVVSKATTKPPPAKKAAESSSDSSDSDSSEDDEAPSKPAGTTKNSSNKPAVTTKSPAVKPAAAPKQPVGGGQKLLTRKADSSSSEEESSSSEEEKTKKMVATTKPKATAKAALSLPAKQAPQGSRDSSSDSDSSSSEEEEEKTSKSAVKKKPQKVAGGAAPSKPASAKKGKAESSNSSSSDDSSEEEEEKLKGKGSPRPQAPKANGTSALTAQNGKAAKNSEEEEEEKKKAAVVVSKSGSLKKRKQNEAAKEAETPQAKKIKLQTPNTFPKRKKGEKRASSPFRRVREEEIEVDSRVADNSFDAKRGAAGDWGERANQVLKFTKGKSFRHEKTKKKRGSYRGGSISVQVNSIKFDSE
# NPL (human) = tested on: NPL (human)
# NPM1 = NPM1 (UniProt P06748)
# NRARP (human) = tested on: NRARP (human)
# NRBF2 (human) = tested on: NRBF2 (human)
# NTS (human) = tested on: NTS (human)
# NUCB1 (human) = tested on: NUCB1 (human)
# NUDT16L1 = NUDT16L1 (UniProt Q9BRJ7)
# NUDT9 (human) = tested on: NUDT9 (human)
# NUMB (human) = tested on: NUMB (human)
# NUPL1 (human) = tested on: NUPL1 (human)
# NXNL1 (human) = tested on: NXNL1 (human)
# [1] = tested on: Neuritin-like protein (human)
# [2] = tested on: Neurocalcin-delta (human)
# [3] = tested on: Neuronal migration protein doublecortin (human)
# Neuroplastin (human) = tested on: Neuroplastin (human)
# [4] = tested on: Neutrophil cytosol factor 1 (human)
# [5] = tested on: Non-histone chromosomal protein HMG-14 (human)
sequence,measurement,setting,value
GGTGACAGGGGTATGGGGAGGGG [G4-2 biotinylated (Ct1)],binding signal,NMNAT2 (human),-0.391 z-score
same,binding signal,NMT2,4.43 z-score
same,binding signal,NOLC1,3.37 z-score
same,binding signal,NPL (human),-0.397 z-score
same,binding signal,NPM1,3.73 z-score
same,binding signal,NRARP (human),-0.385 z-score
same,binding signal,NRBF2 (human),-0.399 z-score
same,binding signal,NTS (human),-0.375 z-score
same,binding signal,NUCB1 (human),-0.372 z-score
same,binding signal,NUDT16L1,3.08 z-score
same,binding signal,NUDT9 (human),-0.371 z-score
same,binding signal,NUMB (human),-0.381 z-score
same,binding signal,NUPL1 (human),-0.378 z-score
same,binding signal,NXNL1 (human),-0.385 z-score
same,binding signal,[1],-0.357 z-score
same,binding signal,[2],-0.396 z-score
same,binding signal,[3],3.89 z-score
same,binding signal,Neuroplastin (human),-0.373 z-score
same,binding signal,[4],3.73 z-score
same,binding signal,[5],6.03 z-score

# Two records picked at random from those above, as already listed:
sequence,measurement,setting,value
GGTGACAGGGGTATGGGGAGGGG [G4-2 biotinylated (Ct1)],binding signal,NRARP (human),-0.385 z-score
same,binding signal,NUMB (human),-0.381 z-score
